Test results: PubChem BioAssay AID493014 (National Center for Advancing Translational Sciences (NCATS), 2011)
Screen size: about 340,000 compounds; about 170 (0.05%) were called active. The shares of active, inactive and inconclusive entries below differ from those in the screen. The call rests on the fitted dose curve; in most records, active means well fitted inhibition curve with a large enough effect in the signal ratio, with a control signal flat (not every such curve was filed as active); inconclusive means small, poorly fitted or top-dose-only effect, or effect the other way, or a change in a side signal; inactive means flat fitted curve, though single readings scatter; the % refers to the signal ratio. Potencies beside an inconclusive call are fits to weak or partial responses and may not hold up.

Test: qHTS Assay to Find Inhibitors of Chronic Active B-Cell Receptor Signaling;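 on activity change, negative = inhibition: plate controls were basal doxycycline-induced cells for no effect and cells given 10 µM MG132 for full effect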
Conditions: ABC-DLBCL IkBa-CBG/CBR reporter, luminescence ratio (green luciferase fused to IkBa over red control in TMD8 lymphoma cells), 4 h; activity change, negative = inhibition: at 46.1 µM (top of the series)
How it was run: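 Compounds up to 46 uM were incubated four hours with TMD8 cells whose green CBG68 luciferase is fused to IkappaBalpha; red CBR luminescence normalised the signal, and concentration-effect curves were fitted to fusion, red and ratio data.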
Potency means the concentration at half of the fitted maximal effect.

Compound | activity change, negative = inhibition | Potency
Cc1ccnc(NC(=O)CCCOc2cc(=O)n(C)c3ccccc23)c1 | inconclusive: 24.3% | –
CC(C)(CNC(=O)c1cccs1)CNC(=O)c1cccs1 | inconclusive: -5.06% | –
O=C(Nc1ccccc1N1CCOCC1)c1ccc([N+](=O)[O-])o1 | inactive: -0.317% | –
CC1(C)CC(=O)C2=C(C1)NC1=C(C(=O)c3ccccc31)C2c1cc([N+](=O)[O-])ccc1O (stereo not drawn) | inactive: -1.79% | –
O=C(CCCC(=O)OCC(Cl)=C(Cl)Cl)Nc1ccccc1 | – | inconclusive: 23.1 µM [falling, partial curve, poor fit]
Brc1ccc(-c2cn3ccccc3n2)cc1 | – | inconclusive: 14.1 µM [falling, single point]
c1nc(N2CCCCCC2)c2[nH]cnc2n1 | inconclusive: -24.5% | –
O=C(NCC1CCCO1)c1nc2c(nnn2Cc2ccc(F)cc2)c(=O)[nH]1 (stereo not drawn) | inconclusive: -0.696% | –
N#Cc1c(-c2ccco2)nc(SCc2ccc(F)cc2)[nH]c1=O | inconclusive: 9.45% | –
O=C(CSc1nc2c(c(=O)n1-c1ccc(Br)cc1)SCC2)NCc1ccco1 | inconclusive: 1.86% | –
O=C(NCCCn1ccnc1)c1ccc(COc2ccccc2)o1 | inactive: -0.164% | –
CCc1nnc(NC(=O)C2CCCN2S(=O)(=O)c2ccc(F)cc2)s1 (stereo not drawn) | inconclusive: 10.6% | –
COc1cccc(OCCNC(=O)CSc2ccc(C(F)(F)F)cc2[N+](=O)[O-])c1 | inactive: -10.5% | –
N#CC1CC(c2ccccc2)Nc2cc(Cl)ccc2N1 (stereo not drawn) | – | inconclusive: 8.91 µM [falling, partial curve]
O=C(Nc1ccc(Cl)cc1)N1CCC(CN2CCCCCC2)CC1 | inconclusive: 27.1% | –
CNc1ccc(NC(C)=O)cc1[N+](=O)[O-] | inconclusive: 19.9% | –
O=C(Nc1cccnc1)C1(F)C(F)(F)C(F)(F)C(F)(F)C(F)(F)C1(F)F | inactive: -1.87% | –
c1ccc(Cc2noc(CN3CCCN(C4Cc5ccccc5C4)CC3)n2)cc1 | – | inconclusive: 35.5 µM [falling, single point]
CN(C)/C=N/C(=S)Nc1cc(Cl)cc(Cl)c1 | inactive: -3.85% | –
COc1ccccc1NC(=O)CNC(=O)c1ccccc1 | – | inconclusive: 3.66 µM [falling, partial curve]
CCCNC(=O)c1ccc2c(c1)nc(C)n2-c1cccc(C)c1 | inconclusive: 2.73% | –

5 records drawn at random from those above:
Compound | activity change, negative = inhibition | Potency
N#CC1CC(c2ccccc2)Nc2cc(Cl)ccc2N1 (stereo not drawn) | – | inconclusive: 8.91 µM [falling, partial curve]
O=C(Nc1ccc(Cl)cc1)N1CCC(CN2CCCCCC2)CC1 | inconclusive: 27.1% | –
c1ccc(Cc2noc(CN3CCCN(C4Cc5ccccc5C4)CC3)n2)cc1 | – | inconclusive: 35.5 µM [falling, single point]
O=C(CSc1nc2c(c(=O)n1-c1ccc(Br)cc1)SCC2)NCc1ccco1 | inconclusive: 1.86% | –
CCCNC(=O)c1ccc2c(c1)nc(C)n2-c1cccc(C)c1 | inconclusive: 2.73% | –

Next structures

Compound | activity change, negative = inhibition | Potency
CC(=O)Nc1ccccc1NC(=O)C/C(C)=N/NC(=O)c1cccnc1 | – | inconclusive: 35.5 µM [falling, single point]
Cc1cnc(C(=O)OCC(=O)Nc2cc(Cl)cc(Cl)c2)cn1 | inconclusive: 6.77% | –
CSc1ccc(S(=O)(=O)N2CCC(C(=O)Nc3ccc(C(N)=O)cc3)CC2)cc1 | inactive: -7.76% | –
O=C(Nc1cc([N+](=O)[O-])ccc1N1CCOCC1)c1ccco1 | inconclusive: -22.6% | –
O=C(O)c1ccc2c(c1)C(=O)N(CCc1ccc(O)cc1)C2=O | – | inconclusive: 23.1 µM [rising, partial curve, poor fit]
Cc1cc(C(=O)N2CCCC(C(=O)c3ccc4ccccc4c3)C2)nn1C (stereo not drawn) | inconclusive: 0.138% | –
COc1cc(OC)c(C(=O)OCC(=O)N2CC(=O)Nc3ccccc32)cc1OC | – | inconclusive: 11.2 µM [falling, partial curve, poor fit]
Nc1nc(COc2ccccc2)cs1 | inconclusive: 9.85% | –
CCOC(=O)COc1cc(Br)c(/C=N/Nc2ccccc2)cc1OC | inconclusive: 0.269% | –
Oc1c(C=C2N=c3ccccc3=N2)sc(=S)n1C1CCCCC1 | inconclusive: 10.3% | –
CC[C@H](C)Cc1cn([C@@H](CCCN=C(NC(=O)OC(C)(C)C)NC(=O)OC(C)(C)C)C(=O)NCCCCCCCCCCC(=O)N2CCN(C(=O)OC(C)(C)C)CC2)nn1 | inactive: -3.51% | –
NS(=O)(=O)c1cccc(NC(=O)COC(=O)CCC(=O)c2cccs2)c1 | inactive: -1.69% | –
CSCCC(NC(N)=O)C(=O)Nc1ccc2ccccc2c1 (stereo not drawn) | inconclusive: 6.9% | –
Cc1ccc(NS(=O)(=O)c2ccc(C(=O)NCc3ccncc3)cc2)cc1 | – | inconclusive: 8.2 µM [falling, partial curve, poor fit]
COc1ccccc1C(O)P(=O)(OCC(C)C)c1ccc(N(C)C)cc1 (stereo not drawn) | inconclusive: -11.8% | –
O=C(Nc1cccnc1)c1ccc([N+](=O)[O-])s1 | inconclusive: 5.84% | –
COc1ccc(-n2c(=O)[nH]c3cc(C(=O)NCCc4ccc(Cl)cc4)ccc3c2=O)cc1OC | inactive: 12.2% | –
COc1cc(CC(=O)Nc2ccc(S(=O)(=O)NC3=NCCCCC3)cc2)cc(OC)c1OC | inconclusive: 0.996% | –
Fc1cccc(Cl)c1CNc1ccc(N2CCCC2)cc1 | inconclusive: -12.4% | –
Cc1ccc(C)c(S(=O)(=O)NCc2ccc(C(=O)N3CCCCCC3)cc2)c1 | inactive: -0.614% | –
CCOC(=O)c1c(NC(=O)COc2ccc(CC)cc2)sc2c1CCCC2 | inconclusive: 3.26% | –

Compound | activity change, negative = inhibition | Potency
Cc1nn(C)c(C(=O)Sc2cccc(Cl)c2)c1[N+](=O)[O-] | inactive: -0.315% | –
COc1cc(OC)cc(C(=O)Nc2ccc(-c3nc4ccccc4s3)c(C)c2)c1 | inconclusive: 5.33% | –
O=C1C(C=Nc2ccccc2O)=C(O)c2ccccc21 | – | inconclusive: 35.5 µM [rising, single point]
O=C(NC(=S)Nn1cnnc1)c1ccc(F)cc1Cl | inactive: 8.85% | –
O=C(Nc1ccnn1C1CCN(CCCc2ccccc2)CC1)c1ccccc1 | – | inconclusive: 35.5 µM [falling, single point]
CCCc1ccc(Oc2cn[nH]c2-c2ccc(O)c(C)c2O)cc1 | inactive: 5.57% | –
Cc1sc2nc(CN(Cc3cccs3)C(=O)C3CC3)[nH]c(=O)c2c1C | inactive: -2.28% | –
O=C(N/N=C\C=C\c1ccc2c(c1)OCO2)c1cccnc1 | – | inconclusive: 18.4 µM [falling, single point]
CCOC(=O)C1=C(C)NC(C)=C(C(=O)OCC)C1C(=O)OCC(=O)NCc1ccco1 | inconclusive: -4.98% | –
O=c1[nH]c(C2CCN(S(=O)(=O)c3ccccc3)CC2)nc2c1nnn2Cc1ccccc1 | inconclusive: 7.3% | –
CSc1ccccc1COC(=O)Nc1ccccc1C | – | inconclusive: 12.6 µM [falling, partial curve]
CC(C(=O)NCC1CCCCC1)N(C)Cc1cccc(Cl)c1 (stereo not drawn) | inconclusive: 2.25% | –
Cc1ccc(C(C(=O)NC(C)(C)C)N(C(=O)CCC(=O)Nc2ccccn2)c2ccccc2F)cc1 (stereo not drawn) | inconclusive: -8.79% | –
Cc1cccc(N2CCN(C(=O)C3CCC(CNS(=O)(=O)c4cccs4)CC3)CC2)c1C (stereo not drawn) | inactive: -9.44% | –
Cn1cccc1/C=N/n1c(-c2ccc(C(C)(C)C)cc2)n[nH]c1=S | inconclusive: 12.8% | –
CC(C)=CCCC(C)CN(C)CCc1ccccn1 (stereo not drawn) | inactive: -2.52% | –
COCCN1C(=O)c2ccccc2C(C(=O)NCCCN2CCCC2)C1c1c[nH]c2ccccc12 (stereo not drawn) | inconclusive: 18.5% | –
COCc1nnc(NS(=O)(=O)c2ccc(C)cc2)s1 | – | inconclusive: 4.11 µM [rising, single point]
C/C(CC(=O)NCc1ccco1)=N\NC(=O)c1ccc([N+](=O)[O-])cc1Cl | – | inconclusive: 15.8 µM [falling, partial curve]
Cc1ccc2nc(Nc3nc(CSc4nnnn4-c4ccccc4)cc(=O)[nH]3)nc(C)c2c1 | – | inconclusive: 0.731 µM [falling, full curve, poor fit]
Cc1cc(/C=C2\Cc3ccccc3C2=O)c(C)n1-c1ccccc1 | inactive: -2.01% | –

Compound | activity change, negative = inhibition | Potency
Cc1nnc(NC(=O)NC(C)N2C(=O)C3C4C=CC(C4)C3C2=O)s1 (stereo not drawn) | inconclusive: -4.61% | –
Cn1c(CNC(=O)CNS(=O)(=O)c2ccc(Br)cc2)cc(=O)n(C)c1=O | inactive: -0.498% | –
CCCCN1c2ccccc2N(CCCO)c2cc(C)nnc21 | – | inconclusive: 35.5 µM [rising, partial curve, poor fit]
O=C(Nc1c(C(=O)O)[nH]c2ccc(F)cc12)c1cccc(C(F)(F)F)c1 | inconclusive: 25.8% | –
CC(C)=CCN1CCN(Cc2cc3ccccc3[nH]2)CC1CCO (stereo not drawn) | inconclusive: 1.85% | –
CCOc1cc(C(=O)Nc2ccccc2N2CCN(S(C)(=O)=O)CC2)cc(OCC)c1OCC | inconclusive: 0.89% | –
COc1ccc(Sc2ccc(-c3nc4cnccn4c3NC3CCCCC3)cc2OC)cc1 | inactive: 0.31% | –
Cc1cc(C)nc(SCC(=O)c2ccc(F)cc2F)n1 | inconclusive: -1.15% | –
COc1ccc(/C=N/Nc2nonc2N)cc1 | inactive: 7.28% | –
CCOc1ccc(NC(=S)NNc2ccnc3cc(Cl)ccc23)cc1 | inconclusive: -4.68% | –
CCOc1ccc(S(=O)(=O)N(C)C)cc1-c1nc2c(C(C)(C)C)nn(C)c2c(=O)[nH]1 | – | inconclusive: 0.461 µM [falling, full curve, poor fit]
NC1=NC(c2ccc(F)cc2)n2c(nc3ccccc32)N1 (stereo not drawn) | inconclusive: 4.91% | –
O=C(CSc1nc2ccccc2c(=O)n1-c1ccc(F)cc1F)Nc1ccc2c(c1)CCC2 | inconclusive: 0.914% | –
Oc1[nH]c2ccc(Br)cc2c1N=Nc1ccc(C(F)(F)F)cn1 | inconclusive: 15.8% | –
Cc1ccc(S(=O)(=O)N(C)CCCC(=O)Nc2cc(C)ccc2C)cc1 | inconclusive: 1.18% | –
Cc1cc(NC(=O)CSCC(=O)Nc2ccccc2Oc2ccccc2)no1 | inactive: 8.51% | –
CN(C)c1ccc(N/C=C/C(=O)c2ccc(F)cc2)cc1 | inactive: 2.53% | –
COc1ccc(C(=O)c2coc3c2C(=O)C(=O)c2ccccc2-3)cc1 | inconclusive: 12% | –
Cn1cc(C(CO)Cc2ccccc2)c2ccccc21 (stereo not drawn) | inactive: 4.4% | –
CC(C)CCOc1ccc(C(=O)NN2C(=O)NC3(CCCCC3)C2=O)cc1 | inactive: 4.65% | –
